From paper PMC10945332 (Theranostics, 2024)
[ ]: non-standard residue; d: D form. 1Nal = N[C@@H](Cc1cccc2ccccc12)C(=O)O; NMeNle = CCCC[C@H](NC)C(=O)O; Sar = CNCC(=O)O

Assay: general procedure: Fmoc solid-phase peptide synthesis; Rink amide resin (0.8 mmol/g; ChemPep); DIC/Oxyma
Conditions: whole synthesis; for final HPLC purity: Analytical HPLC, Kinetex C18 XB 5µm 4.6x150mm, 15-90% MeCN in water containing 0.1% formic acid over 10 min

Substance	difficulty met	isolated yield [%]	final HPLC purity [%]
H-[dE][dA][dE][dE][dE][dE]AY[Sar]W[NMeNle]D[1Nal]-NH2 (SMILES CCCC[C@@H](C(=O)N[C@@H](CC(=O)O)C(=O)N[C@@H](Cc1cccc2ccccc12)C(N)=O)N(C)C(=O)[C@H](Cc1c[nH]c2ccccc12)NC(=O)CN(C)C(=O)[C@H](Cc1ccc(O)cc1)NC(=O)[C@H](C)NC(=O)[C@@H](CCC(=O)O)NC(=O)[C@@H](CCC(=O)O)NC(=O)[C@@H](CCC(=O)O)NC(=O)[C@@H](CCC(=O)O)NC(=O)[C@@H](C)NC(=O)[C@H](N)CCC(=O)O)	led to increased product aggregation and lower overall yield post-purification	21.68	>95
H-[dE][dE][dE][dA][dE][dE]AY[Sar]W[NMeNle]D[1Nal]-NH2 (SMILES CCCC[C@@H](C(=O)N[C@@H](CC(=O)O)C(=O)N[C@@H](Cc1cccc2ccccc12)C(N)=O)N(C)C(=O)[C@H](Cc1c[nH]c2ccccc12)NC(=O)CN(C)C(=O)[C@H](Cc1ccc(O)cc1)NC(=O)[C@H](C)NC(=O)[C@@H](CCC(=O)O)NC(=O)[C@@H](CCC(=O)O)NC(=O)[C@@H](C)NC(=O)[C@@H](CCC(=O)O)NC(=O)[C@@H](CCC(=O)O)NC(=O)[C@H](N)CCC(=O)O)	–	36.64	>95
H-[dE][dE][dA][dE][dE][dE]AY[Sar]W[NMeNle]D[1Nal]-NH2 (SMILES CCCC[C@@H](C(=O)N[C@@H](CC(=O)O)C(=O)N[C@@H](Cc1cccc2ccccc12)C(N)=O)N(C)C(=O)[C@H](Cc1c[nH]c2ccccc12)NC(=O)CN(C)C(=O)[C@H](Cc1ccc(O)cc1)NC(=O)[C@H](C)NC(=O)[C@@H](CCC(=O)O)NC(=O)[C@@H](CCC(=O)O)NC(=O)[C@@H](CCC(=O)O)NC(=O)[C@@H](C)NC(=O)[C@@H](CCC(=O)O)NC(=O)[C@H](N)CCC(=O)O)	–	37.56	94
H-[dE][dE][dE][dE][dE][dA]AY[Sar]W[NMeNle]D[1Nal]-NH2 (SMILES CCCC[C@@H](C(=O)N[C@@H](CC(=O)O)C(=O)N[C@@H](Cc1cccc2ccccc12)C(N)=O)N(C)C(=O)[C@H](Cc1c[nH]c2ccccc12)NC(=O)CN(C)C(=O)[C@H](Cc1ccc(O)cc1)NC(=O)[C@H](C)NC(=O)[C@@H](C)NC(=O)[C@@H](CCC(=O)O)NC(=O)[C@@H](CCC(=O)O)NC(=O)[C@@H](CCC(=O)O)NC(=O)[C@@H](CCC(=O)O)NC(=O)[C@H](N)CCC(=O)O)	led to increased product aggregation and lower overall yield post-purification	22.32	>95
